The target of this assay is T1, DNAX activation protein of 12 kDa (DAP12) (pig (endogenous in PAMs)) (UniProt Q9TU45).
T1 sequence: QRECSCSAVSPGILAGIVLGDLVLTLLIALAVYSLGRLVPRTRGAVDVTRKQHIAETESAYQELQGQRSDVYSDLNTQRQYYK
The assay can be described thus: co-IP.

Drawing on PMC6509187, this text covers binding for one substance.

No constants are given. Whether binding was seen depends on the method and setting. In cells and extracts the contact can be indirect. A result given as binding can be weak or reduced; the word gives no strength.

With “nonmuscle myosin heavy chain IIA (NMHC-IIA) (pig (endogenous in PAMs))”, the binding entry is reported as “binds”.
